## Drug screen on melanoma cell lines: apoptosis marker

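Human melanoma cell lines in 1,536-well plates were treated with a pair of drugs for 72 h, then fixed, stained and imaged. The read-out is the fraction of cleaved-PARP-positive nuclei, in % of that fraction in the DMSO control; 200 means twice the control level of this apoptosis marker. Concentrations were fixed for each drug; these are the higher of two levels. These are primary screening values without error estimates. The marker varies much from line to line, for technical or biological reasons.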
An unselected part of the screen is shown.

Drugs:
PF-562271 (400 nM): CN(c1ncccc1CNc1nc(Nc2ccc3c(c2)CC(=O)N3)ncc1C(F)(F)F)S(C)(=O)=O
pazopanib (2000 nM): Cc1ccc(Nc2nccc(N(C)c3ccc4c(C)n(C)nc4c3)n2)cc1S(N)(=O)=O
LFM-A13 (10000 nM): C/C(O)=C(\C#N)C(=O)Nc1cc(Br)ccc1Br
nilotinib (1000 nM): Cc1cn(-c2cc(NC(=O)c3ccc(C)c(Nc4nccc(-c5cccnc5)n4)c3)cc(C(F)(F)F)c2)cn1
veliparib (7000 nM): C[C@]1(c2nc3c(C(N)=O)cccc3[nH]2)CCCN1
everolimus (100 nM): CO[C@H]1C[C@@H]2CC[C@@H](C)[C@@](O)(O2)C(=O)C(=O)N2CCCC[C@H]2C(=O)O[C@H]([C@H](C)C[C@@H]2CC[C@@H](OCCO)[C@H](OC)C2)CC(=O)[C@H](C)/C=C(\C)[C@@H](O)[C@@H](OC)C(=O)[C@H](C)C[C@H](C)/C=C/C=C/C=C/1C
TCS401 (8330 nM): O=C(O)C(=O)Nc1sc2c(c1C(=O)O)CCNC2
gemcitabine (2 nM): Nc1ccn([C@@H]2O[C@H](CO)[C@@H](O)C2(F)F)c(=O)n1
AZD7762 (100 nM): NC(=O)Nc1cc(-c2cccc(F)c2)sc1C(=O)N[C@H]1CCCNC1
CX-4945 (2000 nM): O=C(O)c1ccc2c(c1)nc(Nc1cccc(Cl)c1)c1ccncc12
perifosine (2000 nM): CCCCCCCCCCCCCCCCCCOP(=O)([O-])OC1CC[N+](C)(C)CC1
midostaurin (400 nM): CO[C@@H]1[C@H](N(C)C(=O)c2ccccc2)C[C@H]2O[C@]1(C)n1c3ccccc3c3c4c(c5c6ccccc6n2c5c31)C(=O)NC4
lenalidomide (5000 nM): Nc1cccc2c1CN(C1CCC(=O)NC1=O)C2=O (centres undefined)
GW441756 (2000 nM): Cn1cc(/C=C2\C(=O)Nc3cccnc32)c2ccccc21
JZL184 (5000 nM): O=C(Oc1ccc([N+](=O)[O-])cc1)N1CCC(C(O)(c2ccc3c(c2)OCO3)c2ccc3c(c2)OCO3)CC1
MK-1775 (100 nM): C=CCn1c(=O)c2cnc(Nc3ccc(N4CCN(C)CC4)cc3)nc2n1-c1cccc(C(C)(C)O)n1
crizotinib (1000 nM): C[C@@H](Oc1cc(-c2cnn(C3CCNCC3)c2)cnc1N)c1c(Cl)ccc(F)c1Cl
cediranib (2000 nM): COc1cc2c(Oc3ccc4[nH]c(C)cc4c3F)ncnc2cc1OCCCN1CCCC1
nilutamide (5000 nM): CC1(C)NC(=O)N(c2ccc([N+](=O)[O-])c(C(F)(F)F)c2)C1=O
Src-I1 (10000 nM): COc1cc2ncnc(Nc3ccc(Oc4ccccc4)cc3)c2cc1OC
PLX4720 (400 nM): CCCS(=O)(=O)Nc1ccc(F)c(C(=O)c2c[nH]c3ncc(Cl)cc23)c1F

* AZD7762 + lenalidomide | WM1716: 129; MeWo: 260
* cediranib + PF-562271 | WM1716: 106; MeWo: 142
* gemcitabine + GW441756 | WM1716: 135; MeWo: 324
* lenalidomide + Src-I1 | WM1716: 270; MeWo: 78.1
* crizotinib + perifosine | WM1716: 82.4; MeWo: 31.6
* TCS401 + nilutamide | WM1716: 134; MeWo: 61.6
* everolimus + JZL184 | WM1716: 34.6; MeWo: 102
* veliparib + pazopanib | WM1716: 140; MeWo: 58.1
* PLX4720 + MK-1775 | WM1716: 77.7; MeWo: 227
* LFM-A13 + midostaurin | WM1716: 171; MeWo: 187
* nilotinib + midostaurin | WM1716: 219; MeWo: 230
* CX-4945 + cediranib | WM1716: 221; MeWo: 86.9

2 of the entries, repeated:

Pair,WM1716,MeWo
AZD7762 + lenalidomide,129,260
veliparib + pazopanib,140,58.1

Source: doi:10.1371/journal.pone.0140310, primary screening data, rounded.